Primary screen of a compound library

Sequences of proteins named here, by UniProt entry; tags and fusion partners are left off.
UniProt I6X8D2, whole entry: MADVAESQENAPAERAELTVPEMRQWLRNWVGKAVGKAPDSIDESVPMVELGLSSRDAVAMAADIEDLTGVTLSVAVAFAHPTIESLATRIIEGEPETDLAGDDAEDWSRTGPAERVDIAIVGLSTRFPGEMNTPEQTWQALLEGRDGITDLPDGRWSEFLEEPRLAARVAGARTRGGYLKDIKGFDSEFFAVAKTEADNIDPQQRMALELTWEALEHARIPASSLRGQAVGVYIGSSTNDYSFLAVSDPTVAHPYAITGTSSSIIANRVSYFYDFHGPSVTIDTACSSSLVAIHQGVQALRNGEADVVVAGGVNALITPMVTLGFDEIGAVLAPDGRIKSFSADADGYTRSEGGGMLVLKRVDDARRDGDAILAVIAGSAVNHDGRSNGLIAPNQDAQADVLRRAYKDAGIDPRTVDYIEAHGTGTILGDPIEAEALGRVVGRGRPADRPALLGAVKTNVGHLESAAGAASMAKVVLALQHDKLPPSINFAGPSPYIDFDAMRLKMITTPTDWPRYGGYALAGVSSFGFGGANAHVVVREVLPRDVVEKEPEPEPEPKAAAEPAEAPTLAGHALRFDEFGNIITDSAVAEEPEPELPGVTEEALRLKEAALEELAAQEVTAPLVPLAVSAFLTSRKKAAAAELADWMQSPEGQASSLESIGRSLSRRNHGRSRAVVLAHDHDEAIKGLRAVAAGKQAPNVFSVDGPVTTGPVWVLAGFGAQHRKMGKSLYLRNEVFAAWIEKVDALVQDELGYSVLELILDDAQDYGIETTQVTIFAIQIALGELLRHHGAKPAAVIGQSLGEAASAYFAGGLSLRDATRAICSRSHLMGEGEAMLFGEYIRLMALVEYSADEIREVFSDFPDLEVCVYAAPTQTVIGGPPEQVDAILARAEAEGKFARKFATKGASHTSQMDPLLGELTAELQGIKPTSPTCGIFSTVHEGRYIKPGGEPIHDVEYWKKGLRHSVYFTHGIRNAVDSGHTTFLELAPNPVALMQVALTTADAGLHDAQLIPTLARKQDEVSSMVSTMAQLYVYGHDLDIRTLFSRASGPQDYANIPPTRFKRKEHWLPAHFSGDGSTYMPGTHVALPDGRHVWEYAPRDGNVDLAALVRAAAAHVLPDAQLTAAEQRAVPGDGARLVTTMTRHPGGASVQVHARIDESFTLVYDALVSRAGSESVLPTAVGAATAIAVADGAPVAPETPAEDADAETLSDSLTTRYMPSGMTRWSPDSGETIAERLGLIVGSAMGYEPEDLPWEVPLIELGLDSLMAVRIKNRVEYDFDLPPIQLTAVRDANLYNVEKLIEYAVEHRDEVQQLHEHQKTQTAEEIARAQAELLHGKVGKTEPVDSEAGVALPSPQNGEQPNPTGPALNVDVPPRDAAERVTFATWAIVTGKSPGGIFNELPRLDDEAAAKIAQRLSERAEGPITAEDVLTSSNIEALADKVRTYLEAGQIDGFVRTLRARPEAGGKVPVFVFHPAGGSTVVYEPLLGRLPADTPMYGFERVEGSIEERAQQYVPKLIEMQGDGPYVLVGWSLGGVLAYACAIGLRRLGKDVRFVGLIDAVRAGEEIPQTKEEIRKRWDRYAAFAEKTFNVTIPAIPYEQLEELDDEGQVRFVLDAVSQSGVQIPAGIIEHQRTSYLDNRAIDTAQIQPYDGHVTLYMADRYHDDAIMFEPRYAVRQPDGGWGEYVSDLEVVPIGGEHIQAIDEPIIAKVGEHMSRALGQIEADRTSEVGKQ

Source: ChEMBL document CHEMBL3988442, “University of Dundee, Small-Polar-MMV Screening Library” (2021).

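Enzyme assay of the thioesterase domain of polyketide synthase 13; the read-out is not stated. Target: Polyketide synthase Pks13, Mycobacterium tuberculosis (UniProt I6X8D2). Tested at 30 µM. Higher reads as stronger inhibition (inferred from which compounds were picked for retests). About 67,000 compounds were tested under these conditions; 0.46% (about 300) showed 50% or more at least once.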

Results are given as percent effect. How 0% and 100% were set is not recorded. Most values in the screen are low, and negative values occur. This is an unselected part of the compounds tested.

Result for CNc1cncc(C2CCCN2S(=O)(=O)c2ccc(F)cc2)n1 (stereo unspecified) was 39.5%.
Result for COc1ccc(-n2ncc(C(C)NC3CCOCC3)c2C)cc1 (stereo unspecified) was -7.351%.
Result for O=C(NC1CCCN(CCc2ccccc2)C1)c1cnccn1 (stereo unspecified) was -8.93%.
Result for Cc1ccc(C(=O)N2C[C@@H]3COC[C@]3(COc3cccnc3)C2)cn1 was -40.75%.
Result for COCCOc1ncccc1C(=O)Nc1ccc(-n2cncn2)c(F)c1 was -5.368%.
Result for NC(=O)Cc1ccc(NC(=O)C2CCOCC2)cc1 was 25.48%.
Result for COc1ccc(OCCc2cc(C3CCN(CC(C)C)C3)n[nH]2)cc1 (stereo unspecified) was 9.017%.
Result for COCC1CN(CC2CC2)Cc2nn(CC3CC3)cc21 (stereo unspecified) was -10.28%.
Result for CC1CN(C)CCN1CC(=O)NCCOc1ccc(Cl)cc1 (stereo unspecified) was -25.07%.
Result for O=C(CCNC(=O)C1CCCC1)NCc1ccccc1Cn1cncn1 was -14.18%.
Result for CC(C)C(Sc1nnc(C2CC2)n1C1CC1)C(=O)NCc1cccnc1 (stereo unspecified) was -9.216%.
Result for O=C(c1cccc2cc[nH]c12)N1CCC2(CCOC2)C1 (stereo unspecified) was -17.5%.
Result for O=C(NCCCn1cncn1)c1ccc(-c2ccco2)[nH]c1=O was 38.69%.
Result for O=C(c1ccco1)N1C[C@H]2CCCN(Cc3ccc(F)cc3)[C@H]2C1 was -7.329%.
Result for CCc1cc(CNC(=O)N2Cc3ccccc3N(C)CC2C)[nH]n1 (stereo unspecified) was -28.12%.
Result for Cc1noc(C)c1CCCNC(=O)C1CCN(C(C)C)CC1 was -9.702%.
Result for CC(=O)N1CCCC1c1nc(C)cc(-c2ccc(F)cc2)n1 (stereo unspecified) was -8.683%.
Result for CNC(=O)NC(=O)CSc1ccc2c(c1)CCC2 was -25.02%.
Result for COCCN(Cc1ccc(OC)nc1)Cc1cccs1 was 27.31%.
Result for Cc1cnn(CC2CCCCN2C(=O)c2ccc(C#N)c(C)n2)c1 (stereo unspecified) was -38.78%.
Result for COc1ccc2nc(C3CC3)cc(C(=O)NCc3noc(C)n3)c2c1 was 83.5%.
Result for CN(C)[C@@H]1CN(C(=O)Cc2cccc(F)c2)[C@@H]2CCCO[C@H]12 was -3.8%.
Result for O=C(NCc1ccco1)c1cccc(CN2CCCC2CO)c1 (stereo unspecified) was -3.191%.
Result for Cc1ncsc1CN1CC2(CCCC2)CC1=O was 1.632%.
Result for CCCn1cnnc1CNC(=O)C1COc2cc(OC)ccc2C1 (stereo unspecified) was 1.999%.
Result for Cc1nn(C)c2ncc(S(=O)(=O)N3CCCC(C)CC3)cc12 (stereo unspecified) was -36.67%.
Result for CCNc1nnc(SCC(=O)N2CCN(Cc3ccc(Cl)s3)CC2)s1 was 43.93%.
Result for CC(C)N1c2sc(-c3ccccc3)nc2CC1C(=O)NCCCO (stereo unspecified) was -17.96%.
Result for CSC(C)C(=O)NCCC(=O)N1CCN(c2ccccn2)CC1 (stereo unspecified) was -5.898%.
Result for O=C(COc1ccc(F)cc1)N1CCCSCC1CN1CCOCC1 (stereo unspecified) was -10.13%.
Result for COc1cc(CNCc2ccc(C(C)O)cc2)cc2c1OCO2 (stereo unspecified) was -11.73%.
Result for Cc1cc(C2CCCN(C(=O)COc3ccc(F)cc3F)C2)n[nH]1 (stereo unspecified) was -28.49%.

4 of the entries, repeated:

{"smiles": "O=C(NC1CCCN(CCc2ccccc2)C1)c1cnccn1", "stereo": "stereo unspecified", "Percent Effect": -8.93}
{"smiles": "CC(C)N1c2sc(-c3ccccc3)nc2CC1C(=O)NCCCO", "stereo": "stereo unspecified", "Percent Effect": -17.96}
{"smiles": "CCCn1cnnc1CNC(=O)C1COc2cc(OC)ccc2C1", "stereo": "stereo unspecified", "Percent Effect": 1.999}
{"smiles": "COc1ccc(OCCc2cc(C3CCN(CC(C)C)C3)n[nH]2)cc1", "stereo": "stereo unspecified", "Percent Effect": 9.017}